## Percent effect of library compounds

Amino acid sequences for entries named in this document (tags omitted). Residues count along the entry.
UniProt P9WFT3, whole entry: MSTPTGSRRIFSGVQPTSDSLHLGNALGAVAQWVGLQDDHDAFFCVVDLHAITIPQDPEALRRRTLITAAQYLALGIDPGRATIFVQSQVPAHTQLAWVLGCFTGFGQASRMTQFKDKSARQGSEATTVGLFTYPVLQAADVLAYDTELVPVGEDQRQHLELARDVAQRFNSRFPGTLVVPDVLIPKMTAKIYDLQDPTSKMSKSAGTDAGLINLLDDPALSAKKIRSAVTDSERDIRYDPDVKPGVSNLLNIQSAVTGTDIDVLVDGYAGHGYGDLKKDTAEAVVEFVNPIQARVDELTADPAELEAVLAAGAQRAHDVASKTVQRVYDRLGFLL
UniProt A4I591, 1-473: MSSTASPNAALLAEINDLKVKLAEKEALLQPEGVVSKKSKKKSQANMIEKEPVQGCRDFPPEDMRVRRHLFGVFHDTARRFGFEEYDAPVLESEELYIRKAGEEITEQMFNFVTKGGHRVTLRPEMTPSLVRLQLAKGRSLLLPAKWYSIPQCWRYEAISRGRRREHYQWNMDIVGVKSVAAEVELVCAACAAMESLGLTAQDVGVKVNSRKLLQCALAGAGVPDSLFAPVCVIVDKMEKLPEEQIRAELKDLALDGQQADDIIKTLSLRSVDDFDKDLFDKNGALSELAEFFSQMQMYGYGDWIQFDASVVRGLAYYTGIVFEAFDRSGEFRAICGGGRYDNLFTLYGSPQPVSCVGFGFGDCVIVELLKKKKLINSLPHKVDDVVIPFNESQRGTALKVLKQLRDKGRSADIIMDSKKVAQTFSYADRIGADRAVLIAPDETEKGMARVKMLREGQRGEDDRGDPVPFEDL

The values are deposited in ChEMBL (CHEMBL3988442, “University of Dundee, Small-Polar-MMV Screening Library” (2021)).

MtTrpRS: 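Enzyme assay of tryptophanyl-tRNA synthetase; the read-out is not stated. Target: Tryptophan-tRNA ligase, Mycobacterium tuberculosis (UniProt P9WFT3). Compounds at 10 µM. Higher most likely means stronger inhibition; the record gives no direction and few retests gave an IC50. About 65,000 compounds were tested under these conditions; 0.098% (about 64) showed 50% or more at least once.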
LiHisRS: 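Histidine-tRNA ligase, Leishmania infantum (UniProt A4I591). Enzyme assay of histidyl-tRNA synthetase; the read-out is not stated. Tested at 30 µM. Higher reads as stronger inhibition (inferred: compounds with an IC50 in retests scored well above the rest). The assay is labelled LdHisRS but filed under L. infantum. Size under these conditions: about 69,000 compounds, about 410 of them at 50% or above in at least one test.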

Each number is a percent effect as filed.
How 0% and 100% were set is not recorded. Most values in the screen are low, and negative values occur.
Compounds were drawn at random from those tested, without regard to their results.
A dash means the value is not listed here; it may have been measured.

Compound,MtTrpRS,LiHisRS
CC(=O)NCCNC(=O)Nc1ccc(Br)cc1C(C)C,8.123%,1.429%
Cn1/c(=N/C(=O)CSCC(=O)Nc2nccs2)sc2ccccc21,-3.267%,8.696%
CC(C)Cn1cncc1-c1nc2c([nH]1)CCCNC2=O,3.971%,15.71%
Cc1nc2c(c(N3CC=CC3)n1)CCN(c1ncccc1C(N)=O)CC2,-2.113%,6.452%
O=C(NCc1ccccc1Cn1cncn1)C1CC1,-5.127%,13.16%
O=C(Cc1ccc(Br)s1)NCC(=O)Nc1cn[nH]c1,-3.177%,9.821%
CC1CCCN(S(=O)(=O)NCc2ccccc2Cn2cncn2)C1 (centres unmarked),-1.562%,8.772%
Cc1ccccc1[C@@H]1CN(CCOCCO)C[C@H]1C(=O)O,3.207%,9.804%
Cc1nc(CN2C[C@@H]3CN(C(=O)c4ccncc4)C[C@@H]3C2)cs1,-,9.901%
CC(=O)N1CCCN(Cc2nnc(C(C)(C)C)o2)CC1,1.323%,-1.37%
COc1ccc(CN2C[C@@H]3CN(Cc4ccoc4)C[C@@H]3C2=O)cc1,10.91%,15.53%
CC(C)c1noc(CS(=O)(=O)Cc2nc(C(C)C)no2)n1,-0.9518%,12.77%
Fc1ccc(CN2CCn3cc(Cn4cccn4)nc3C2)cc1,1.383%,12.82%
CC(CNC(=O)c1ccc(F)cc1I)N1CCCC1 (centres unmarked),11.96%,20.41%
CC(C)CNC(=O)N1CC[C@@H]2CN(Cc3cccnc3)S(=O)(=O)[C@@H]2CC1,-,8.182%
COCc1nc(C(=O)NS(=O)(=O)c2c(C)c(C)cc(C)c2C)cs1,-7.754%,8.333%
O=C(NCCNS(=O)(=O)C1CCCCC1)c1ccccc1,0.06473%,20.88%
CCCc1n[nH]c(C2CN(C(=O)c3cc(F)ccc3OC)CCO2)n1 (centres unmarked),-1.657%,13.64%
COc1c(CNC2CCCc3ccccc32)c(C)nn1C (centres unmarked),1.006%,26.42%
COc1cc(Cl)cc(CN2CCCC(N3CCOCC3)C2)c1OC (centres unmarked),-3.028%,5.882%
CCn1nc(C)c(NC(=O)C(C)C)c1C,-2.081%,-29.41%
Cc1nc(C)n(CC2CCCCN2Cc2nc(-c3ccco3)no2)n1 (centres unmarked),-5.838%,19.64%
CC(C)OCCCN(Cc1cnn(C)c1)Cc1ccccn1,8.527%,11.43%
O=C(O)c1c(-c2ccncc2)ncc2c1CCN(C1CCOC1)C2 (centres unmarked),-0.5394%,13.79%
CCn1cc2c(n1)CN(S(=O)(=O)c1cccnc1)CC2COC (centres unmarked),-4.302%,14.53%
O=C(NCC(O)c1ccc(F)c(F)c1)c1ccccc1F (centres unmarked),-0.4515%,16%
CN1CCC(N2CCOC3(CCCC3)C2)C1=O (centres unmarked),-3.725%,-21.92%
CN(Cc1cccc(-n2cccn2)c1)Cc1cccs1,-3.311%,8.333%
O=C(C1CCC1)N1CC[C@]2(O)CCN(Cc3ncccn3)C[C@@H]2C1,5.709%,14.29%
CC(=O)N1CCC2(C1)c1ccccc1S(=O)(=O)N2CCC(C)C (centres unmarked),-5.762%,-5.556%
CS(=O)(=O)N1CCN(C(=O)CCC2CCCO2)CC1 (centres unmarked),-4.421%,13.7%
C[S+]([O-])CCNC(=O)N1CCN(c2cc(F)ccc2F)CC1 (centres unmarked),3.778%,11.67%
COC(=O)c1cc(C(=O)N2CCCC(C)C2)n(-c2ccccc2)n1 (centres unmarked),-8.977%,19.64%
COc1cccc2c1OCC(C(=O)N1CCN(CCS(C)(=O)=O)CC1)C2 (centres unmarked),-0.942%,15.2%
CCn1cc(CN2CCCN(C(=O)c3ccccc3C)CC2)cn1,-2.884%,9.735%
CCc1nnsc1C(=O)NCc1nnc2n1CCC2,-0.361%,21.43%
c1cc2c(cc1C[C@@H]1CC[C@H](CN3CCCOCC3)O1)OCO2,-1.487%,13.7%
O=C(Nc1cccnc1)[C@H]1C[C@@H]2CCN(c3nncs3)C[C@H]2O1,-0.9381%,21.15%
Cc1nc(CC(C)C)cc(C(=O)N2C[C@@H](CN(C)C)[C@@H](CO)C2)n1,2.385%,-13.73%
CN1C(=O)CO[C@H]2CCN(C(=O)Cc3ccc4c(c3)CCCC4)CC[C@@H]21,-7.878%,17.39%
Cc1noc(C)c1-c1cccc(C2CN(CC(=O)N(C)C)CCO2)n1 (centres unmarked),-7.784%,9.859%
Cc1nccn1-c1cc(CNC(=O)c2ccnc(N(C)C)c2)ccn1,-1.958%,14.52%
CC(C)CC(O)C1CCN(C(=O)c2ccc(C(C)C)[nH]c2=O)CC1 (centres unmarked),-3.336%,-1.613%
CCCN(C)CC1CCN(c2ncc(Br)cn2)C1 (centres unmarked),-3.972%,3.896%
Cc1nnc(CN2CCCC2c2c(C)nn(C)c2Cl)o1 (centres unmarked),-2.77%,21.93%
O=c1[nH]c2ccccc2cc1CNCCCN1CCOCC1,-,3.125%
CCCN1CCC(Cc2noc(-c3ncccc3C)n2)CC1,2.323%,22.34%
O=C(c1ccnnc1)N1C[C@H]2CCC[C@@]2(COCC2CCOCC2)C1,-2.703%,4.511%
Cc1nc(C)n(CC2CCCCN2CCOc2cccc(C#N)c2)n1 (centres unmarked),-5.616%,11.86%
COCC(=O)N1CCCC2(CCN(c3cncnc3)C2=O)C1 (centres unmarked),-2.047%,9%
Cc1cc(C(=O)NCc2ccnc(OCC(F)(F)F)c2)on1,5.085%,-7.143%
c1cn(CC2CCOCC2)c(-c2cc(CN3CCCC3)cs2)n1,-1.852%,26.67%
CNC(=O)c1nc2c(s1)CCN(C(=O)c1ccccc1)CC2,-1.79%,8.571%
O=C(NC1CCCC1)C1(Cc2cc(C3CCOC3)no2)CCNCC1 (centres unmarked),-4.606%,-68.09%
O=C(c1n[nH]c2c1CN(C1CCOC1)CC2)N1CCOCC1 (centres unmarked),-3.779%,17.31%
O=C(c1ccc[nH]1)N1CCN(C(c2ccccc2)C(F)(F)F)CC1 (centres unmarked),0.6353%,11.61%
Cc1cccc(Nc2ccc(C3CCN(Cc4ncc[nH]4)CC3)nc2)n1,-7.668%,9.396%
Cc1cnn(CC2CCCN2CC(=O)Nc2cc(C(C)C)no2)c1 (centres unmarked),2.101%,11.97%
COc1ccc(CC(C)Nc2cccc(F)c2)cc1 (centres unmarked),-0.6056%,-3.529%
CN(c1cccc2ccccc12)S(=O)(=O)c1cc(C(=O)O)cs1,1.729%,37.31%
CNC(=O)Cc1noc(-c2cc3c(s2)CCC(C)C3)n1 (centres unmarked),-3.01%,16.67%
O=C(NCc1ccco1)[C@H]1C[C@H]2OCC[C@H]2N(C(=O)c2ccncc2)C1,-3.043%,3.774%
CN1CCC(c2cc(CCO)ncn2)C1 (centres unmarked),2.921%,15.49%
CCOc1ccc(CN(C)C(=O)NC(C)c2nncn2C)cc1 (centres unmarked),3.981%,10.58%
COc1ccc(C(=O)C2CCCN(CCc3ccccc3)C2)c(OC)c1 (centres unmarked),3.956%,10.39%
CNc1nc(CNC(=O)Nc2cccc(CC(F)(F)F)c2)cs1,2.322%,20.18%
O=C(c1cnc(OCC(F)(F)F)c(Cl)c1)N1CCc2ccc(O)cc2C1,7.55%,4.396%
CC(=O)N(Cc1ncc(C)o1)C1CCN(CCn2cccn2)C1 (centres unmarked),-3.072%,5.128%
OCc1csc(N2CCCN(Cc3ccc(F)cc3)CC2)n1,-0.07468%,23.02%
Cc1nc(CN(C)S(=O)(=O)c2ccccc2C(F)(F)F)no1,4.139%,11.11%
CSCC(=O)NC(Cc1ccc(C)cc1)c1ccccn1 (centres unmarked),-1.886%,17.74%
COc1cc(NCc2cccnc2)c(-c2nn[nH]n2)cc1OC,7.766%,20.99%
Cc1cc(CNCC2(O)CCOCC2)ccc1F,-1.563%,11.76%
CCc1cc(CNC(=O)C2CCC(=O)N(Cc3ccccc3F)C2)on1 (centres unmarked),2.315%,14.17%
COc1ccccc1CCNS(=O)(=O)N1CCOCC1,-0.7742%,11.7%
Cn1c(CN2CCCC2)nnc1C1CCCN(C(=O)N2CCOCC2)C1 (centres unmarked),-4.131%,13.89%
CCCS(=O)(=O)NC(C)C(=O)NCc1ccnc(N2CCCC2)c1 (centres unmarked),-4.379%,9.649%
Cc1cc(C)n(CC2CN(Cc3ccccn3)CCO2)n1 (centres unmarked),-1.144%,0%
Cc1nc(-c2cc(C(=O)NC(C)(C(=O)O)C(C)C)co2)cs1 (centres unmarked),-2.233%,15%
CN1CCC(N[C@@H]2CO[C@H](CNC(=O)c3cccs3)[C@H]2O)CC1,0.07531%,19.44%